Measurements reported in PubChem BioAssay AID1159569 (Broad Institute, 2015).
The inconclusive results got no clear call from the source; some entries with a clear call stand among them for comparison. Activity calls are given as the source filed them. The rule behind the calls is not given here.

Test: HepG2 cell cytotoxicity, dose response, cytotoxicity control, plate reader, dry powder samples (AID 1159569)
Conditions: HepG2 cytotoxicity counterscreen; at 50 µM (top of the series) unless noted

| Compound | activity change, negative = cytotoxicity |
| --- | --- |
| C[C@H]1CN([C@@H](C)CO)S(=O)(=O)c2ccc(-c3ccc(C#N)cc3)cc2O[C@H]1CN(C)CC1CC1 | inconclusive: -48.9% |
| COc1ccccc1C#Cc1ccc([C@H]2[C@@H](C#N)N(C(=O)C3CC3)[C@H]2CO)cc1 | inconclusive: -56.3% |
| COc1cccc(C#Cc2ccc([C@@H]3[C@@H](CO)N4C(=O)CN(C(=O)c5ccccc5)C[C@@H]34)cc2)c1 | inconclusive: -99.1% |
| CCC(=O)N1CCC2(CC1)CN(S(=O)(=O)c1ccccc1)[C@@H](CO)c1[nH]c3cc(OC)ccc3c12 | inactive: -22.3% |
| COc1ccc(C#Cc2ccc3c(c2)O[C@@H](CN(C)S(=O)(=O)c2ccccc2F)[C@@H](C)CN([C@@H](C)CO)S3(=O)=O)cc1 | inactive: -31.4% |
| Cc1ccccc1-c1ccccc1[C@H]1[C@@H](C#N)N(C(=O)c2ccccc2)[C@@H]1CO | inactive: -2.64% |
| COc1ccc(NC(=O)N2CC(=O)N3[C@@H](CO)[C@H](c4ccc(C#CCC5CCCC5)cc4)[C@@H]3C2)cc1 | inconclusive: -51.5% |
| Cc1ccc(S(=O)(=O)N(C)C[C@H]2Oc3cc(C#Cc4ccncc4)ccc3S(=O)(=O)N([C@@H](C)CO)C[C@@H]2C)cc1 | inconclusive: -43.5% |
| CO[C@@H]1CN(C)C(=O)c2ccc(NC(=O)c3nc4ccccc4s3)cc2OC[C@H](C)N(Cc2ccncc2)C[C@@H]1C | inconclusive: -95.7% |
| N#C[C@H]1[C@@H](c2ccc(C#CC3CCCC3)cc2)[C@@H](CO)N1S(=O)(=O)Cc1ccccc1 | inconclusive: -59.7% |
| C[C@@H]1CN([C@@H](C)CO)C(=O)c2cccc(NC(=O)c3nc4ccccc4s3)c2O[C@H]1CN(C)C(=O)Nc1cccc2ccccc12 | inconclusive: -61% |
